From paper PMC8391295
No constants are given. Whether binding was seen depends on the method and setting. In cells and extracts the contact can be indirect. Some results given as binding are weak or reduced against the parent protein; the word gives no strength.

The chains behind the UniProt entries cited, without tags or fusion partners.
UniProt P55064: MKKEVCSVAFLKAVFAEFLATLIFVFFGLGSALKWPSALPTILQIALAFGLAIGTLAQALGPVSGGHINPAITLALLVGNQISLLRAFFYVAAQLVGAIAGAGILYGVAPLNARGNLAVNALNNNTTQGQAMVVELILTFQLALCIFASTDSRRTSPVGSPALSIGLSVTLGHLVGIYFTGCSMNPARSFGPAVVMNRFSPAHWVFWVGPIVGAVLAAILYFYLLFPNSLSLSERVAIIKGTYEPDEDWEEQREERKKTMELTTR

Experiments:
[1] = target: T1, PIP (from the PIP-encoding plasmid, pEZ-M94 vector, GeneCopoeia) (human) (UniProt P12273); assay: proximity ligation; Duolink PLA on co-transfected NS-SV-AC cells fixed with methanol 48 h post-transfection; mouse anti-HA-tag and rabbit anti-PIP
T1 sequence: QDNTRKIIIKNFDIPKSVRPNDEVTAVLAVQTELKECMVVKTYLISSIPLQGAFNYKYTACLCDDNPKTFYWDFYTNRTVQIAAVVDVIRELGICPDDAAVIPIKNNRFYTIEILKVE

[2] = target: T2, human PIP (endogenous, minor salivary glands) (human (endogenous in minor salivary glands)) (UniProt P12273); assay: proximity ligation; PLA on paraffin-embedded human minor salivary gland sections (SICCA-NS and SICCA-SS patients); rabbit anti-AQP5 and mouse anti-PIP
T2 sequence: T1 sequence

binding [1]	binding [2]	Substance
binds		HA-AQP5 (from UniProt P55064 1-265)
	binds	human AQP5 (endogenous, minor salivary glands) (from UniProt P55064 1-265)
